Results are given in words; binding and its absence hold for the method and conditions named. Some binding calls cover weakened binding; strength is not graded here.
Tests used:
vitronectin [1] = molecular target: vitronectin (UniProt P04004); assay: radiolabelled IGF-I or IGF-II bound to VN-coated wells in the presence of non-glycosylated IGFBP-3 (E. coli); IGFBP-3:VN binding read through the labelled IGF
vitronectin [2] = molecular target: vitronectin (UniProt P04004); assay: [^125I]-IGF-I bound to VN-coated wells in the presence of IGFBP
vitronectin [3] = molecular target: vitronectin (UniProt P04004); assay: [^125I]-IGF-II bound to VN-coated wells in the presence of IGFBP-5; IGFBP:VN binding read through labelled IGF-II
vitronectin [4] = molecular target: vitronectin (UniProt P04004); assay: [^125I]-IGF-I bound to VN-coated wells with glycosylated IGFBP-3; IGFBP:VN binding read through labelled IGF-I

The chains behind the UniProt entries cited, without tags or fusion partners. Residues count along the entry.
UniProt P04004, residues 20-478: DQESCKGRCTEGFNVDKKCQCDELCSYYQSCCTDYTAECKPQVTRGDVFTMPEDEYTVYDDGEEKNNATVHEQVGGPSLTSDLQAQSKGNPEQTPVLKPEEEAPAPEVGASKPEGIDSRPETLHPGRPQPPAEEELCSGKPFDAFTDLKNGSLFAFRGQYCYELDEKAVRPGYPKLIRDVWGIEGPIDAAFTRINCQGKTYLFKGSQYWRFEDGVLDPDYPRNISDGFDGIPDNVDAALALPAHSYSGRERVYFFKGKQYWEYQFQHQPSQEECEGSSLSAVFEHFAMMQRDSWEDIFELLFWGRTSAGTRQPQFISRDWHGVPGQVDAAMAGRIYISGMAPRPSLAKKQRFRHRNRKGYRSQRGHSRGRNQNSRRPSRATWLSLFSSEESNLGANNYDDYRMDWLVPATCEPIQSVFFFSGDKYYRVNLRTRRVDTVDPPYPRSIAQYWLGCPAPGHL
UniProt P17936, residues 28-291: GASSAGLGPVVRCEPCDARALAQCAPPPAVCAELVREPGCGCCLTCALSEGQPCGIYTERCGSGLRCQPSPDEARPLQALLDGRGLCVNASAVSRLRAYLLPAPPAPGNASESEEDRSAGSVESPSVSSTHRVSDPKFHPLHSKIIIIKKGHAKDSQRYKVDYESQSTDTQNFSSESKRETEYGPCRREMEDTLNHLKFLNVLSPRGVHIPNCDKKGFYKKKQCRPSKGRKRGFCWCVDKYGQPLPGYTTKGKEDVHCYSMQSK
UniProt P18065, residues 36-325: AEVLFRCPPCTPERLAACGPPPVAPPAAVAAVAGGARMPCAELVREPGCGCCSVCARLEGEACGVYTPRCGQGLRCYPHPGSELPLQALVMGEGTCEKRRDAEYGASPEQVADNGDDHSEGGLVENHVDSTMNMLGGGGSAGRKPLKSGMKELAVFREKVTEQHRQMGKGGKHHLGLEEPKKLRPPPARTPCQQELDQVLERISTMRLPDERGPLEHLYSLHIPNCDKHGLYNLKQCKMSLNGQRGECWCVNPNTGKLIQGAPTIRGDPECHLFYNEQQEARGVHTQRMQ
UniProt P24593, residues 21-272: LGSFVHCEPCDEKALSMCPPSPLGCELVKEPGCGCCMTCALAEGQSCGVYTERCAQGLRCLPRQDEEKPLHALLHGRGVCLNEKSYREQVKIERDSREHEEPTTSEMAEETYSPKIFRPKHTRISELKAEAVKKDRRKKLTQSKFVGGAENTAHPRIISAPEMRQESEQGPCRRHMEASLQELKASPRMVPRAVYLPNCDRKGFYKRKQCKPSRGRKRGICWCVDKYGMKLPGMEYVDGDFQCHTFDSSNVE

binding (vitronectin [1]) | binding (vitronectin [2]) | binding (vitronectin [3]) | binding (vitronectin [4]) | Substance
binds |  |  |  | non-glycosylated recombinant IGFBP-3 produced in E. coli (from UniProt P17936 28-291)
 | binds |  |  | recombinant IGFBP-2 produced in mammalian cells (from UniProt P18065 36-325)
 | binds | binds |  | recombinant IGFBP-5 produced in mammalian cells (from UniProt P24593 21-272)
 | binds |  | binds | recombinant glycosylated IGFBP-3 produced in mammalian cells (from UniProt P17936 28-291)
